# Assay results published in PubChem BioAssay (EPA / NIEHS).
# The chains behind the UniProt entries cited, without tags or fusion partners.
# UniProt Q16665, whole entry, looked up: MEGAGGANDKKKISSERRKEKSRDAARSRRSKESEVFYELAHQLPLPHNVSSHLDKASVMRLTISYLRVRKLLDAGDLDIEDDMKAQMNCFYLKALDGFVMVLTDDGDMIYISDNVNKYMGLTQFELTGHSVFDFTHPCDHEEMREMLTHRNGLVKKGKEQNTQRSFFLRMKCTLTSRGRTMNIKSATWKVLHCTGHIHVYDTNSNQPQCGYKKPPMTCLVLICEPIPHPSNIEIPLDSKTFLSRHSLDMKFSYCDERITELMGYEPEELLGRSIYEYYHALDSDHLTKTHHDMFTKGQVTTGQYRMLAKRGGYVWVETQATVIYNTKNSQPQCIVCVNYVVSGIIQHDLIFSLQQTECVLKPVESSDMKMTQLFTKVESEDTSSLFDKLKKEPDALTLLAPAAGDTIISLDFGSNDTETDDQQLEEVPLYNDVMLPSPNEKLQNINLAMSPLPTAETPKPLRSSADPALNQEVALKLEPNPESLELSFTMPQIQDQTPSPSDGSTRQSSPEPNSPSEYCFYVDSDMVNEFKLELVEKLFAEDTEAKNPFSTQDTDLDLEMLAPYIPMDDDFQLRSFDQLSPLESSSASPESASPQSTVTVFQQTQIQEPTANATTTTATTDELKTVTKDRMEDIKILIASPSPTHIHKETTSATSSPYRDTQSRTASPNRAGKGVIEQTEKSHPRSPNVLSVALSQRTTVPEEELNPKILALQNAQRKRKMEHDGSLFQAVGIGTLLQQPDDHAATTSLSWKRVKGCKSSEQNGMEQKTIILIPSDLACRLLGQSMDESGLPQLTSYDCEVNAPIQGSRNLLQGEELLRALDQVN
# For some of these results: Most of the hits are listed elsewhere, so they are rarer here than in the full data. The entries are a selection whose mix differs from that of the whole data set. Results filed as inconclusive are left out. The source made the active and inactive calls. How the source made its calls, unless noted: active means hit-call score of the fitted dose curve at least 0.9, where 1 is the maximum; inactive means score below 0.9.
# Key:
# [1] = read-out: ATP-citrate lyase (ACLY), ACLY (gene 47); assay: LTEA_HepaRG_ACLY: Life Technologies and Expression Analysis (LTEA) Assay for ATP-citrate lyase (ACLY) using HepaRG (AID 2283466); settings: actives raise or lower the signal; mRNA level, 48 h
# Method in brief: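 Differentiated HepaRG cells exposed 48 h in serum-free induction medium to eight half-log concentrations up to 100 uM in 0.5% DMSO, duplicates. Transcript measured by Fluidigm TaqMan qRT-PCR, normalized to ACTB, GAPDH, POLR2A; bidirectional fit versus DMSO.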
# [2] = read-out: Hypoxia-inducible factor 1-alpha (Homo sapiens) (UniProt Q16665); assay: LTEA_HepaRG_HIF1A: Life Technologies and Expression Analysis (LTEA) Assay for Hypoxia-inducible factor 1 (HIF1A) Trancription factor using HepaRG (AID 2283503); settings: actives raise or lower the signal; mRNA level, 48 h;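 further: HIF1A transcript by TaqMan qRT-PCR normalized to ACTB GAPDH and POLR2A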
# Method in brief: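 HepaRG, 48 h exposure, 8-pt half-log series from 100 uM, 0.5% DMSO vehicle, duplicates. Readout: HIF1A transcript by qRT-PCR (Fluidigm array), housekeeping-normalised. Bidirectional curve fit vs DMSO baseline.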
# [3] = CEETOX_H295R_CORTIC: CeeTox H295R High-throughput Steroidogenesis Assay for Corticosterone (CORTIC) (AID 2283437); settings: actives raise or lower the signal;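 further: corticosterone secreted into medium quantified by mass spectrometry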
# Method in brief: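 H295R adrenal cells prestimulated 48 hours with 10 uM forskolin, then exposed 48 hours to chemical in 0.1% DMSO. Corticosterone in medium measured by HPLC-MS/MS after MTBE extraction; MTT viability in the same wells; bidirectional fit versus DMSO.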
# [4] = read-out: Forkhead box O3 (FOXO3), FOXO3 (gene 2309); assay: LTEA_HepaRG_FOXO3: Life Technologies and Expression Analysis (LTEA) Assay for Forkhead box O3 (FOXO3) using HepaRG (AID 2283459); settings: actives raise or lower the signal; mRNA level, 48 h
# Method in brief: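 Differentiated human HepaRG cells, 48 h post-plating, exposed in duplicate for 48 h in serum-free induction medium; 8-point half-log series from 100 uM in 0.5% DMSO. FOXO3 mRNA by TaqMan qRT-PCR, normalized to ACTB/GAPDH/POLR2A; bidirectional fit versus DMSO.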
# [5] = read-out: growth arrest and DNA damage 45 (GADD45A), GADD45A (gene 1647); assay: LTEA_HepaRG_GADD45A: Life Technologies and Expression Analysis (LTEA) Assay for growth arrest and DNA damage 45 (GADD45A) using HepaRG (AID 2283458); settings: actives raise or lower the signal; mRNA level, 48 h
# Method in brief: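 Differentiated HepaRG cells were exposed in duplicate for 48 h in serum-free induction medium to 8-point half-log concentrations up to 100 uM in 0.5% DMSO. GADD45A mRNA was measured by TaqMan qRT-PCR, normalized to ACTB, GAPDH and POLR2A, with bidirectional fitting versus DMSO.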
# [6] = read-out: ABC Transporter (ABCC2), ABCC2 (gene 1244); assay: LTEA_HepaRG_ABCC2: Life Technologies and Expression Analysis (LTEA) Assay for ABC Transporter (ABCC2) using HepaRG (AID 2283464); settings: actives raise or lower the signal; mRNA level, 48 h
# Method in brief: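 Differentiated HepaRG cells in serum-free induction medium exposed 48 h to eight half-log concentrations up to 100 uM, 0.5% DMSO, in duplicate. ABCC2 mRNA measured by qRT-PCR (TaqMan, Fluidigm), normalized to ACTB, GAPDH and POLR2A. Fitted in both directions against DMSO.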
# [7] = LTEA_HepaRG_LDH_cytotoxicity: Cytotoxicity Assessment in the Life Technologies and Expression Analysis (LTEA) Assay (AID 2283563; active means hit-call score of the fitted dose curve at least 0.9, where 1 is the maximum)
# Method in brief: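 Differentiated HepaRG cells in serum-free induction medium, exposed 48 h in duplicate to 8 half-log concentrations up to 100 uM in 0.5% DMSO. Cytotoxicity from LDH measured in spent medium, fit relative to DMSO.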
# [8] = CCTE_Deisenroth_AIME_384WELL_CTox_Inactive: Cytotoxicity Assessment (CTOX) in CCTE's 384-well Estrogen Receptor Transactivation Assay without AIME metabolic competence (metabolism negative), Deisenroth Lab (AID 2284039; active means hit-call score of the fitted dose curve at least 0.9, where 1 is the maximum;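 further: cell viability via live-cell protease substrate cleaved to fluorescent probe; cells exposed 24 h to medium preincubated 2 h with alginate-water beads without S9; loss of fluorescence signal means loss of viability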)
# Method in brief: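 Fluorescence from a live-cell protease substrate, read after 24 h in VM7Luc4E2 cells, indicated viability. Test medium came from a 2 h AIME step without hepatic S9 (alginate-water microspheres); concentrations spanned 0.002 - 200 uM, single technical replicate per run.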
# [9] = read-out: ABC Transporter (ABCB11), ABCB11 (gene 8647); assay: LTEA_HepaRG_ABCB11: Life Technologies and Expression Analysis (LTEA) Assay for ABC Transporter (ABCB11) using HepaRG (AID 2283463); settings: actives raise or lower the signal; mRNA level, 48 h
# Method in brief: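 Differentiated human HepaRG cells in serum-free induction medium, dosed in duplicate for 48 h. Eight-point half-log series from 100 uM in 0.5% DMSO; ABCB11 mRNA by qRT-PCR, normalized to ACTB, GAPDH, POLR2A, fitted bidirectionally versus DMSO.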
# [10] = read-out: Cytochrome P450 (CYP1A1), CYP1A1 (gene 1543); assay: LTEA_HepaRG_CYP1A1: Life Technologies and Expression Analysis (LTEA) Assay for Cytochrome P450 (CYP1A1) using HepaRG (AID 2283454); settings: actives raise or lower the signal; mRNA level, 48 h
# Method in brief: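 Differentiated human HepaRG cells, after 48 h plating, exposed in duplicate for 48 h in serum-free induction medium to 8 half-log concentrations up to 100 uM in 0.5% DMSO. CYP1A1 mRNA by qRT-PCR, normalized to ACTB/GAPDH/POLR2A; bidirectional fit versus DMSO.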
# [11] = read-out: matrix metalloproteinase-10 (MMP10), MMP10 (gene 4319); assay: LTEA_HepaRG_MMP10: Life Technologies and Expression Analysis (LTEA) Assay for matrix metalloproteinase-10 (MMP10) using HepaRG (AID 2283517); settings: actives raise or lower the signal; mRNA level, 48 h
# Method in brief: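 Differentiated HepaRG cells in serum-free induction medium exposed 48 h in duplicate to 8-point half-log series up to 100 uM in 0.5% DMSO. mRNA quantified by qRT-PCR, normalised to ACTB, GAPDH, POLR2A; bidirectional fit versus DMSO.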
# MYC, MYC (gene 4609) = assay: LTEA_HepaRG_MYC: Life Technologies and Expression Analysis (LTEA) Assay for MYC using HepaRG (AID 2283518); settings: actives raise or lower the signal; mRNA level, 48 h
# Method in brief: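 Differentiated HepaRG cells exposed 48 h in serum-free induction medium to 8 concentrations (top 100 uM, half-log steps; 0.5% DMSO), duplicate. MYC mRNA measured by Fluidigm qRT-PCR, normalized to ACTB, GAPDH, POLR2A; bidirectional fit versus DMSO.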
# [12] = read-out: Thyroid Hormone Responsive (THRSP), THRSP (gene 7069); assay: LTEA_HepaRG_THRSP: Life Technologies and Expression Analysis (LTEA) Assay for Thyroid Hormone Responsive (THRSP) using HepaRG (AID 2283536); settings: actives raise or lower the signal; mRNA level, 48 h
# Method in brief: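 Differentiated HepaRG cells treated 48 h in serum-free induction medium with 8 half-log concentrations up to 100 uM (0.5% DMSO), duplicates. THRSP mRNA by TaqMan qRT-PCR normalised to ACTB, GAPDH, POLR2A; bidirectional fit versus DMSO.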
structure (smiles),measurement,setting,value
CCC(C)c1ccccc1O (stereo unspecified),outcome,[1],inactive
same,outcome,[2],inactive
C#C[C@]1(O)CC[C@H]2[C@@H]3CCc4cc(OC)ccc4[C@H]3CC[C@@]21C,outcome,[3],inactive
CCCC(=O)O,outcome,[4],inactive
Cc1ncc(CO)c(CO)c1O,outcome,[5],inactive
same,outcome,[6],inactive
same,outcome,[7],inactive
same,outcome,[8],inactive
Nc1ccccc1N,AC50,[9],active: 61.6 µM
same,outcome,[1],inactive
Cc1occc(=O)c1O,outcome,[10],inactive
same,outcome,[2],inactive
same,outcome,[11],inactive
c1cc(-c2ccncc2)ccn1,AC50,[9],active: 9.92 µM
same,outcome,"MYC, MYC (gene 4609)",inactive
same,outcome,[12],inactive
